# Test results from PMC11265398.
# The chains behind the UniProt entries cited, without tags or fusion partners. Where a name states a change or a piece, a line headed by the entry shows the natural chain unless it says otherwise.
# UniProt P03204: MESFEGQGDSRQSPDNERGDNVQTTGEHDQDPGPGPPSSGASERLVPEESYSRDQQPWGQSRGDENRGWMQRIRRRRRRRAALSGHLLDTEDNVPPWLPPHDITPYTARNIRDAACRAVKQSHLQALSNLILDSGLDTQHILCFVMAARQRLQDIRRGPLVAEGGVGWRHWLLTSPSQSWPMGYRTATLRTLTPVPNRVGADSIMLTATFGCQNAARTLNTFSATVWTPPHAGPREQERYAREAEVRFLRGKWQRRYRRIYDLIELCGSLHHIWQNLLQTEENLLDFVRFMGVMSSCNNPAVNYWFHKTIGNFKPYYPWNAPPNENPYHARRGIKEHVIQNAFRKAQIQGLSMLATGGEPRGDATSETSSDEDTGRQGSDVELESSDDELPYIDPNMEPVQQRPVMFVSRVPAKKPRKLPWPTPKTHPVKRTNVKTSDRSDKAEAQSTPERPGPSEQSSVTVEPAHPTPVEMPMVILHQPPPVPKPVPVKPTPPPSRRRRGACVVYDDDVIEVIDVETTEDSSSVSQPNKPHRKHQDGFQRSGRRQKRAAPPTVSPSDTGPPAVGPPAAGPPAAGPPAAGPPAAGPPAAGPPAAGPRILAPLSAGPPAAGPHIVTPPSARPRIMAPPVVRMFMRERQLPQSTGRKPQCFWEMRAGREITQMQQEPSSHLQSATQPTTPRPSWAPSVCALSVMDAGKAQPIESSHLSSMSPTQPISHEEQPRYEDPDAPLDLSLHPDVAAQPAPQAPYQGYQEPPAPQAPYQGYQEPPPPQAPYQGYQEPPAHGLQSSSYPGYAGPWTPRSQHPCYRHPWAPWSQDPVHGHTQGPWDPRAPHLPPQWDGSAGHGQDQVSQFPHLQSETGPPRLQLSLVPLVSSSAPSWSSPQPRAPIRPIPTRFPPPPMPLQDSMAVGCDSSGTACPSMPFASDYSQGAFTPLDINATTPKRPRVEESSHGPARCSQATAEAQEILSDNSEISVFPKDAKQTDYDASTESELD
# No constants are given. Whether binding was seen depends on the method and setting. In cells and extracts the contact can be indirect. Some binding calls cover weakened binding; strength is not graded here. For part of these data: Sequences can lack the tags named with a protein.
# Target: T1, endogenous FBXO11 of B cells (human (endogenous in BJAB7 and LCL1)) (UniProt Q86XK2)
# T1 sequence: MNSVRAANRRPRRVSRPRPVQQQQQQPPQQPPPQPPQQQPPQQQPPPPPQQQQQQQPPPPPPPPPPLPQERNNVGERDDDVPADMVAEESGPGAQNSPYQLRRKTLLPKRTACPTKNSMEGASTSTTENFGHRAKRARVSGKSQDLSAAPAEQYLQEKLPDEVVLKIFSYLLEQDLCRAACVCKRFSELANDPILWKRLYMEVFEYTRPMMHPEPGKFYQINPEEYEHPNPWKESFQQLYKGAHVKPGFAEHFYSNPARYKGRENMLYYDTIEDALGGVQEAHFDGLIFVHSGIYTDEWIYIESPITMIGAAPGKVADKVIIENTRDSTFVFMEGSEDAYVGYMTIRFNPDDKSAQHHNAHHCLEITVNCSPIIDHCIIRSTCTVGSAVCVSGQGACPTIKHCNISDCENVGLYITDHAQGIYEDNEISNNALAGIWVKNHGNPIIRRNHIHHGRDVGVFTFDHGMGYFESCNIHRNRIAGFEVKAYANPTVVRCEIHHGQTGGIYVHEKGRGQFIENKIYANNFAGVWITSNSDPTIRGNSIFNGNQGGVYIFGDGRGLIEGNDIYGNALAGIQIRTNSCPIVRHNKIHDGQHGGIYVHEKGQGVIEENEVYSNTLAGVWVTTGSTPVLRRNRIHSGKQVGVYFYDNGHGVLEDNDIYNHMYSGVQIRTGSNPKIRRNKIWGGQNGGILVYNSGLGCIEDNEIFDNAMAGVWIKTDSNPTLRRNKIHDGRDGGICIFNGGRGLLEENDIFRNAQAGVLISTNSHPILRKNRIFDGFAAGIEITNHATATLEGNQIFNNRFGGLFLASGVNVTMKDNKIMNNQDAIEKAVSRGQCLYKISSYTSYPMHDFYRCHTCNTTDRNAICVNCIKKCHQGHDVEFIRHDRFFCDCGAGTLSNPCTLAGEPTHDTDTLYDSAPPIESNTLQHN
# Assay: co-IP; sixty million BJAB, BJAB7 and LCL1 cells lysed; immunoprecipitation with 2 µg anti-FBXO11 antibody; western blot
row,Substance,binding
1,EBNA3C stably expressed in BJAB7 cells (from UniProt P03204 1-992),binds
2,EBNA3C of EBV-transformed LCL1 cells (from UniProt P03204 1-992),binds

# Target: T2, Flag-tagged full-length FBXO11 (UniProt Q86XK2)
# T2 sequence: T1 sequence
# Assay: co-IP; ten million Saos-2 cells co-transfected with Flag-FBXO11 and Myc-EBNA3C (full length or truncations); lysed 48 hours post-transfection; immunoprecipitation with 2 µg anti-Flag antibody; western blot with antibodies against Flag and Myc
row,Substance,binding
1,Myc-tagged full-length EBNA3C (1-992 aa) (from UniProt P03204 1-992),binds
2,Myc-tagged EBNA3C (1-365 aa) (from UniProt P03204 1-365) (domain or fragment),binds
3,Myc-tagged EBNA3C (1-200 aa) (from UniProt P03204 1-200) (domain or fragment),binds
4,Myc-tagged EBNA3C (50-365 aa) (from UniProt P03204 50-365) (domain or fragment),binds
